PubChem BioAssay AID1671195 | Yale University – 2021
Shown is an unselected part of about 22,000 reagents. About 1,510 of them (6.9%) count as active. 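Active includes knockdowns raising or lowering LDL uptake; positive z-scores mean more uptake, negative mean less.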 Reagents against one gene are numbered here.

Test: 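Genes whose knockdown alters LDL uptake in liver cancer cells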 (primary screen)
Cells: human Huh7 hepatoma cells
Knock-down reagent: siRNA pool against human genes, 18 nM
Duration: about 2 to 2.5 days of knockdown, then 8 h LDL uptake
Treatment: DiI-labelled LDL at 30 µg/ml for 8 h, in lipoprotein-deficient serum medium
Measured: 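Per-cell DiI-LDL intensity by automated imaging; well means scaled to the plate median and given as a robust z-score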
Direction: robust z-score: higher = more LDL uptake after knockdown
Hit rule: 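a gene counts as active if at least two replicate z-scores exceed ±2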

For HTR3B (GeneID 9177), the values are robust z-score, replicate 1 = -1.18; robust z-score, replicate 2 = -0.788; robust z-score, replicate 3 = -1.37; inactive. With knock-down of ACRBP (GeneID 84519) the results were robust z-score, replicate 1 = -1.5; robust z-score, replicate 2 = -1.15; robust z-score, replicate 3 = -0.384; inactive. Against LOC388305 (retired record) (GeneID 388305), the entry reads robust z-score, replicate 1 = -0.209; robust z-score, replicate 2 = -0.509; robust z-score, replicate 3 = -0.751; inactive. For GMFB (GeneID 2764), the entry reads robust z-score, replicate 1 = 2.81; robust z-score, replicate 2 = 1.73; robust z-score, replicate 3 = 2.73; active. LOC440236 (retired record) (GeneID 440236) showed robust z-score, replicate 1 = -0.718; robust z-score, replicate 2 = -0.5; robust z-score, replicate 3 = -0.552; inactive. CHST2 (GeneID 9435) showed robust z-score, replicate 1 = 0.621; robust z-score, replicate 2 = -0.0338; robust z-score, replicate 3 = 0.415; inactive.

Knock-down of FZD10-AS1 (GeneID 440119) resulted in: robust z-score, replicate 1 = 0.0874; robust z-score, replicate 2 = -0.467; robust z-score, replicate 3 = -0.454; inactive. CALHM3 (GeneID 119395) showed robust z-score, replicate 1 = 0.0743; robust z-score, replicate 2 = -0.0302; robust z-score, replicate 3 = 0.0585; inactive. Knock-down of H3-4 (GeneID 8290) came out at: robust z-score, replicate 1 = 0.327; robust z-score, replicate 2 = -0.291; robust z-score, replicate 3 = -0.0773; inactive. With knock-down of SFMBT2 (GeneID 57713) the results were robust z-score, replicate 1 = -0.258; robust z-score, replicate 2 = -0.607; robust z-score, replicate 3 = -0.805; inactive. DQX1 (GeneID 165545) gave robust z-score, replicate 1 = 0.993; robust z-score, replicate 2 = 1.2; robust z-score, replicate 3 = 1; inactive. LOC442382 (GeneID 442382) showed robust z-score, replicate 1 = -1.72; robust z-score, replicate 2 = -1.62; robust z-score, replicate 3 = -1.36; inactive.

With knock-down of LINC00667 (GeneID 339290) #1, the record shows robust z-score, replicate 1 = 2.3; robust z-score, replicate 2 = 2.59; robust z-score, replicate 3 = 2.11; active. After knock-down of LINC00667 (GeneID 339290) #2, the screen gave robust z-score, replicate 1 = 1.02; robust z-score, replicate 2 = 1.06; robust z-score, replicate 3 = 0.688; inactive. OR2F1 (GeneID 26211) scored robust z-score, replicate 1 = 0.451; robust z-score, replicate 2 = -1.14; robust z-score, replicate 3 = 0.294; inactive. Depletion of LOC442461 (retired record) (GeneID 442461) gave: robust z-score, replicate 1 = -0.779; robust z-score, replicate 2 = -1.06; robust z-score, replicate 3 = -0.721; inactive. PRTFDC1 (GeneID 56952) gave robust z-score, replicate 1 = 3.5; robust z-score, replicate 2 = 2.18; robust z-score, replicate 3 = 3.56; active. VPS41 (GeneID 27072) showed robust z-score, replicate 1 = 3.04; robust z-score, replicate 2 = 3.09; robust z-score, replicate 3 = 2.76; active.

For ATL1 (GeneID 51062), the values are robust z-score, replicate 1 = -1.43; robust z-score, replicate 2 = -1.68; robust z-score, replicate 3 = -1.22; inactive. SIK2 (GeneID 23235) scored robust z-score, replicate 1 = -0.0983; robust z-score, replicate 2 = -0.976; robust z-score, replicate 3 = -0.769; inactive. Against ABCA6 (GeneID 23460) the deposit lists robust z-score, replicate 1 = 1.03; robust z-score, replicate 2 = 1.23; robust z-score, replicate 3 = 1.57; inactive. OTUD1 (GeneID 220213) scored robust z-score, replicate 1 = 0.516; robust z-score, replicate 2 = 0.436; robust z-score, replicate 3 = 1.06; inactive. Knock-down of CPNE1 (GeneID 8904) came out at: robust z-score, replicate 1 = 2.13; robust z-score, replicate 2 = 0.631; robust z-score, replicate 3 = -0.0137; inactive. Knock-down of VAC14 (GeneID 55697) resulted in: robust z-score, replicate 1 = -0.533; robust z-score, replicate 2 = -1.74; robust z-score, replicate 3 = 1.73; inactive.

Hits, among the entries above:
GMFB (GeneID 2764): robust z-score, replicate 1 = 2.81; robust z-score, replicate 2 = 1.73; robust z-score, replicate 3 = 2.73; Outcome = active
LINC00667 (GeneID 339290) #1: robust z-score, replicate 1 = 2.3; robust z-score, replicate 2 = 2.59; robust z-score, replicate 3 = 2.11; Outcome = active
PRTFDC1 (GeneID 56952): robust z-score, replicate 1 = 3.5; robust z-score, replicate 2 = 2.18; robust z-score, replicate 3 = 3.56; Outcome = active
VPS41 (GeneID 27072): robust z-score, replicate 1 = 3.04; robust z-score, replicate 2 = 3.09; robust z-score, replicate 3 = 2.76; Outcome = active
